Measurements reported in patent US20240384244A1, “METHODS AND COMPOSITIONS FOR TREATING DNMT3A DEFICIENCY-ASSOCIATED DISEASES” (Washington University, priority 2023, published 2024).
At least one compound was matched to its structure with a doubt left.

Test system: DNMT3L
Experiment: Western blot of DNMT3L protein in K562 cells after Romidepsin or CRISPR/a plasmids
Assay type: cell-based, human
Conditions: K562 leukemia cells

Q: `C/C=C1\NC(=O)[C@H]2CSSCC/C=C/[C@H](CC(=O)N[C@H](C(C)C)C(=O)N2)OC(=O)[C@H](C(C)C)NC1=O` [Romidepsin] was tested. Which “reactivation of DNMT3L” value did it give?
A: The value was “strongly reactivate DNMT3L”.
